Literature values in patent US20240252500A1, “Treatment of chronic pruritic dermatoses” (CymaBay Therapeutics, Inc., priority 2023, published 2024).
For at least one compound, name, drawing or mass did not settle the structure.

Test system: human IL-31
Settings: humanized liver murine model; cited from earlier work

CC[C@H]1[C@@H](O)[C@@H]2[C@H](CC[C@]3(C)[C@@H]([C@H](C)CCC(=O)O)CC[C@@H]23)[C@@]2(C)CC[C@@H](O)C[C@@H]12 [obeticholic acid]
serum levels of human IL-31: increased
